According to the supplement of paper PMC10849652:
The other results are listed elsewhere or left out.

By UniProt entry, the sequences of proteins in these tests, tags left out. Where a name states a change or a piece, a line headed by the entry shows the natural chain unless it says otherwise.
UniProt Q15506: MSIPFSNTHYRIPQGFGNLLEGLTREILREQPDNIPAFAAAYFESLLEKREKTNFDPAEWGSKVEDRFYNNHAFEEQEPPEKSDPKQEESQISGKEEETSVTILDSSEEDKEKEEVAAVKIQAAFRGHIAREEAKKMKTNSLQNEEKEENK
UniProt P04179: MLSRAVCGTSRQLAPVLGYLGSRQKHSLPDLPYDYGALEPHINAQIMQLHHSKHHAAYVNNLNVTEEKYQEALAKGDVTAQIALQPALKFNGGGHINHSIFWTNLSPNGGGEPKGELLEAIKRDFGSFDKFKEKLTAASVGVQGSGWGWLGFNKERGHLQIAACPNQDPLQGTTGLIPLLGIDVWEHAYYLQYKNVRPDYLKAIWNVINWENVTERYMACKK
UniProt P62316, whole entry, looked up: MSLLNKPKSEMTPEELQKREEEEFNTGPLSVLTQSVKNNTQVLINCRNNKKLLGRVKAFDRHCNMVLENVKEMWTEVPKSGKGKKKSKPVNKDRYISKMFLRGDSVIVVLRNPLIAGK
UniProt Q9NTJ3, whole entry, looked up: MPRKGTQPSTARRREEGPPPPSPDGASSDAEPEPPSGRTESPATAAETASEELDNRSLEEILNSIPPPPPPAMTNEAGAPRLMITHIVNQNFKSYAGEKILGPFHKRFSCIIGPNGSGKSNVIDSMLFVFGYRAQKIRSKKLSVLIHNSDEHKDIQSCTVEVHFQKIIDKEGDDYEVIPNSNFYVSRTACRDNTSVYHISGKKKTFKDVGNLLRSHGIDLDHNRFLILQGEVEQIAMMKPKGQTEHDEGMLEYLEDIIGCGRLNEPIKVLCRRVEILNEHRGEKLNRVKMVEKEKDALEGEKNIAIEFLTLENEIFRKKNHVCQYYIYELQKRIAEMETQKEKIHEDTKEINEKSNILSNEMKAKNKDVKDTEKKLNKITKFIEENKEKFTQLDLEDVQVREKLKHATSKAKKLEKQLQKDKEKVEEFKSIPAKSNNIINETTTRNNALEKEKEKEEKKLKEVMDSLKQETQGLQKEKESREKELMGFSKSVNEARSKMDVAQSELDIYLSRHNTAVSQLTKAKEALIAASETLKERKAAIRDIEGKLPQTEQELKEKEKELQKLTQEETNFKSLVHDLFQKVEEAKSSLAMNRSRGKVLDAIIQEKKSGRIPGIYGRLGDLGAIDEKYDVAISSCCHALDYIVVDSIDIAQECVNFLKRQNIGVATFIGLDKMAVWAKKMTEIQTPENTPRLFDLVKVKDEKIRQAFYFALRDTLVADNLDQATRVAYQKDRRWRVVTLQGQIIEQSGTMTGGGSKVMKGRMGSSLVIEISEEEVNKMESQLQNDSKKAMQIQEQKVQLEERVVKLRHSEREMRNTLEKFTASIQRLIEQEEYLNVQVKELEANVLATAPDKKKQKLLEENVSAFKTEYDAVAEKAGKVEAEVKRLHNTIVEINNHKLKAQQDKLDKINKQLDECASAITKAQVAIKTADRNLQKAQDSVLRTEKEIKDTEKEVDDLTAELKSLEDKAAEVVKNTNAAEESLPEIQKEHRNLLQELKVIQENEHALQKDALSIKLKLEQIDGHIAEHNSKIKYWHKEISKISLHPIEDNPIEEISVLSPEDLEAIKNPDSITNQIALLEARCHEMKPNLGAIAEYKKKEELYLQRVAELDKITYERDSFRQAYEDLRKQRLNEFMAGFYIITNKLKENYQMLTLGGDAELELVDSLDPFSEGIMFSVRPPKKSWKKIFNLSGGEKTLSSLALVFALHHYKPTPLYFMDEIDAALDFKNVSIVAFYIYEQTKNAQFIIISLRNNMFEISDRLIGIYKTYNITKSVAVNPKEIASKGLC
UniProt Q7KZF4: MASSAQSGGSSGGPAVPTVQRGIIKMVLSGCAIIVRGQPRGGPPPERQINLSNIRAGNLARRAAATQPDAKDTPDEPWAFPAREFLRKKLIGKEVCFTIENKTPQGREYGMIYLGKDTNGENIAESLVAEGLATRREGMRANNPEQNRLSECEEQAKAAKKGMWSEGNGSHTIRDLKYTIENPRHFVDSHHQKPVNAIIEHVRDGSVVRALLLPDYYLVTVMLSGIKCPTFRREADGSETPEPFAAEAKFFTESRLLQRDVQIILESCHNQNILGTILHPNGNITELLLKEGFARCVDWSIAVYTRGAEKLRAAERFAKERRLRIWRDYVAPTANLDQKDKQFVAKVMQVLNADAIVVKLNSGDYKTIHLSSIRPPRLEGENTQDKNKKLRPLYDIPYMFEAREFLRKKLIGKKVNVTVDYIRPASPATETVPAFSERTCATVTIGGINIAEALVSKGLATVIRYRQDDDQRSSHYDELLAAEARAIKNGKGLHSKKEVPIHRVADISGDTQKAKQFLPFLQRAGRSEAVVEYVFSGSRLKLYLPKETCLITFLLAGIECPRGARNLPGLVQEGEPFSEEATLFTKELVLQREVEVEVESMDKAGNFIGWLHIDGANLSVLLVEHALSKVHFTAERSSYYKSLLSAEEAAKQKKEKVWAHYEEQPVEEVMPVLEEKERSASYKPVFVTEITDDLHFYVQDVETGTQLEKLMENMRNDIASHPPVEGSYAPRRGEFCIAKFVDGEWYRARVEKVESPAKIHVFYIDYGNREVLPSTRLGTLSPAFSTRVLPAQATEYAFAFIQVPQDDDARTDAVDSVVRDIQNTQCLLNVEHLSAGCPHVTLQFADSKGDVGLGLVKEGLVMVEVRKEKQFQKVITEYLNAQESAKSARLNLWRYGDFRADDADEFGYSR
UniProt P09661: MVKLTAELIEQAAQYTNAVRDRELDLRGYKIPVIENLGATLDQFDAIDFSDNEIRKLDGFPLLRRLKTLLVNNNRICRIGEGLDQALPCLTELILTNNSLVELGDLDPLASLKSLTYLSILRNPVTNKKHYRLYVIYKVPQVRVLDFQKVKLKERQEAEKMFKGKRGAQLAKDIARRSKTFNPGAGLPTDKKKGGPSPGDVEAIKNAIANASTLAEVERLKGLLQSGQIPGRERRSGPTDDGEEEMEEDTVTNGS
UniProt Q9Y5X2: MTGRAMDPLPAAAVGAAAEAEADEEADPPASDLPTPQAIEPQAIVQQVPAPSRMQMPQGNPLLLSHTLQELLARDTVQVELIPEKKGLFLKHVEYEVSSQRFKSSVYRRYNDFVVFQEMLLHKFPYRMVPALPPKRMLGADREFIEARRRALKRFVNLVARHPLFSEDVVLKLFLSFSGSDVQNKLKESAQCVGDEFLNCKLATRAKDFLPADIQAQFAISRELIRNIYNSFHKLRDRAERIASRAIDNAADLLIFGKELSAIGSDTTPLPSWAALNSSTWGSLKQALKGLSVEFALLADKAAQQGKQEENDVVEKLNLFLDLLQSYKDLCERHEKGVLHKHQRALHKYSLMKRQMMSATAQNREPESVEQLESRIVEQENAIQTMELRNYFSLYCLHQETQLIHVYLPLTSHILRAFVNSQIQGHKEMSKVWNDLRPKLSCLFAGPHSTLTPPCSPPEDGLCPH
UniProt O14508, whole entry, looked up: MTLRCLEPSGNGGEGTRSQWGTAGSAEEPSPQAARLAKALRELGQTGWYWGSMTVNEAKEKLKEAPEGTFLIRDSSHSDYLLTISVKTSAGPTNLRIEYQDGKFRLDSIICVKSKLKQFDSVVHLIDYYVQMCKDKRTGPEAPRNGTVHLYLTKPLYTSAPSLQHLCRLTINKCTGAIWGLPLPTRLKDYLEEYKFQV
UniProt P62308, whole entry, looked up: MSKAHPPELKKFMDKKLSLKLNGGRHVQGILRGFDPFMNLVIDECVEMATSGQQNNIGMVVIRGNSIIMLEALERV
UniProt Q14683: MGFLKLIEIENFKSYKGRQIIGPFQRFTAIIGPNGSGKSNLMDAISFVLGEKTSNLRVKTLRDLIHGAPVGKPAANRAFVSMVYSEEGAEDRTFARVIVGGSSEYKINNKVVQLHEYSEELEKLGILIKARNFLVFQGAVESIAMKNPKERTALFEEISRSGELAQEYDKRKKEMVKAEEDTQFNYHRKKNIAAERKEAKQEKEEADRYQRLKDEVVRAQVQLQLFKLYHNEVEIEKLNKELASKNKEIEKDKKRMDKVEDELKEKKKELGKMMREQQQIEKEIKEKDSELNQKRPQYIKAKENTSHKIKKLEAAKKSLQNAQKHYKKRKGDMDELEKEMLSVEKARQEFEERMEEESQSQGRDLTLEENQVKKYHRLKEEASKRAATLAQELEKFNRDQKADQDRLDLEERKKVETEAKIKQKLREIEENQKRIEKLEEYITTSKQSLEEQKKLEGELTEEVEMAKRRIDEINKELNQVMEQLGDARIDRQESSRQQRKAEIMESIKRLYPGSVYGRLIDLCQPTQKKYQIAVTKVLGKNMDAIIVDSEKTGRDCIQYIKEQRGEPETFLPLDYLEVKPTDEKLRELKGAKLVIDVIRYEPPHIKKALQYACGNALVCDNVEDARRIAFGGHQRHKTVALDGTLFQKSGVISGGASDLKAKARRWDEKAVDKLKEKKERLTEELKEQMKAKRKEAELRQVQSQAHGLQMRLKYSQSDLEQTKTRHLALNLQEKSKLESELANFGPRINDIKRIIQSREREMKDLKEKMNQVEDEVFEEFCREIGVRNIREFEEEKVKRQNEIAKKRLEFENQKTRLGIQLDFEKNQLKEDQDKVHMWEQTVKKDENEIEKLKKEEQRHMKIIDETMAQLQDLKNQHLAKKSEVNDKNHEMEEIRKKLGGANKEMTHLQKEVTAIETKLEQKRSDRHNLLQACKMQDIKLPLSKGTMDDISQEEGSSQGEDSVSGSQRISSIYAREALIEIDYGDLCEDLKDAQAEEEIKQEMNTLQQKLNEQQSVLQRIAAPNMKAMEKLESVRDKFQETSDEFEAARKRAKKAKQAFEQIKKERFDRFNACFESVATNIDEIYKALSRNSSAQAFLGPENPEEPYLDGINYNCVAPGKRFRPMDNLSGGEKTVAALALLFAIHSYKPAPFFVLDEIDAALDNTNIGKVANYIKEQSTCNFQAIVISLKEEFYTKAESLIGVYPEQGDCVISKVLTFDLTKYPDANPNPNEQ
UniProt Q8NDV3: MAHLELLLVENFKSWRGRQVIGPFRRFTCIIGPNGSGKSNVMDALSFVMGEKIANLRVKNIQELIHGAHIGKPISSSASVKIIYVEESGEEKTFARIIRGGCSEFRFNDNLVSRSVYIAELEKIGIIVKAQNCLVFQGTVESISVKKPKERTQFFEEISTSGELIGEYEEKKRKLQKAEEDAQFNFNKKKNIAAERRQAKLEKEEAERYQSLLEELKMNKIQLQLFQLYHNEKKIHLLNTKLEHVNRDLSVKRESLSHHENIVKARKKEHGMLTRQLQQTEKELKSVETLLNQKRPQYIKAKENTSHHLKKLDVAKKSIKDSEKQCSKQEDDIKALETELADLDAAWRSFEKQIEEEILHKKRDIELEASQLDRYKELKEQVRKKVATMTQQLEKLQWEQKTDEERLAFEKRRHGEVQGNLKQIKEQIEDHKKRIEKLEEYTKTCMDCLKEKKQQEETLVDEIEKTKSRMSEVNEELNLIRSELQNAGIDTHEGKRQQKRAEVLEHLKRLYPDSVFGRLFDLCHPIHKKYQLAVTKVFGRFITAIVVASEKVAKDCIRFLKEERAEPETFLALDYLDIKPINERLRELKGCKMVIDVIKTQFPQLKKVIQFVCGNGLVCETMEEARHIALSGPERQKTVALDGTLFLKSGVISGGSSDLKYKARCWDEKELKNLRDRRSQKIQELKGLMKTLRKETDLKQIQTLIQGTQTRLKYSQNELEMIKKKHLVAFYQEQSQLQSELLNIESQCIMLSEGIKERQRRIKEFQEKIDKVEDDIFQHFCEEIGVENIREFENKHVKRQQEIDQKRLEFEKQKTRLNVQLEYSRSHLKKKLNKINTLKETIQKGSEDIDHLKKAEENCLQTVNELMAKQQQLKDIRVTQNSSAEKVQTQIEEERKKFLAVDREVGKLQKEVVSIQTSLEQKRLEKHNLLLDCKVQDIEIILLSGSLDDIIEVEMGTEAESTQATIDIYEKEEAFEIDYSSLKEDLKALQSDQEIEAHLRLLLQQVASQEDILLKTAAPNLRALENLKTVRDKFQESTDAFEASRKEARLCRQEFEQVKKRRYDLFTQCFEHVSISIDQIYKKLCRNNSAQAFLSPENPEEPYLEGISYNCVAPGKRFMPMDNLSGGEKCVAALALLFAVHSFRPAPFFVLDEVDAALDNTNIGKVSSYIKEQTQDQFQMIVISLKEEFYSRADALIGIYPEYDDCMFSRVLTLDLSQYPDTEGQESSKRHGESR
UniProt P09234, whole entry, looked up: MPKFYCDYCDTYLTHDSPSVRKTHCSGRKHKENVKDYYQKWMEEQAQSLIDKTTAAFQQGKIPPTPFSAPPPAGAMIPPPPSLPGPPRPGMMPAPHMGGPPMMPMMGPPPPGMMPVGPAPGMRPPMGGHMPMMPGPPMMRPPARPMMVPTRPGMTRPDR

What was measured:
Assay in all cases: log2 fold change, soluble protein after heating vs DMSO (PISA); higher = thermal stabilisation; K562 cells, 10 uM, 30 min; active = over 0.2 and 3.5 SD of the protein, either way, in both replicates (recomputed)
saracatinib = compound: CN1CCN(CCOc2cc(OC3CCOCC3)c3c(Nc4c(Cl)ccc5c4OCO5)ncnc3c2)CC1 [saracatinib]
In short: (§1)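 Aliquots of K562 cells (2×10^6 cells/mL) treated with 10 μM compound for 30 min were heated for 3 min over 48°C-58°C. After pooling and extraction in PBS with 0.5% NP-40 at 4°C, soluble protein from a 21,000xg, 90 min spin was quantified by TMTpro 16plex LC-MS/MS with channel sums equalised. Thermal stability is expressed against control samples, from duplicates, as a log2 fold change.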

sotrastaurin = compound: CN1CCN(c2nc(C3=C(c4c[nH]c5ccccc45)C(=O)NC3=O)c3ccccc3n2)CC1 [sotrastaurin]
In short: as §1

alvocidib = compound: CN1CC[C@H](c2c(O)cc(O)c3c(=O)cc(-c4ccccc4Cl)oc23)[C@H](O)C1 [alvocidib]
In short: as §1

Tubastatin A = compound: CN1CCc2c(c3ccccc3n2Cc2ccc(C(=O)NO)cc2)C1 [Tubastatin A]
In short: as §1

[1] = compound: CNC(=O)C1=CC=CC=C1NC2=NC(=NC=C2Cl)NC3=C(C=C(C=C3)N4CCOCC4)OC
In short: as §1

defactinib = compound: CNC(=O)c1ccc(Nc2ncc(C(F)(F)F)c(NCc3nccnc3N(C)S(C)(=O)=O)n2)cc1 [defactinib]
In short: as §1

rucaparib = compound: CNCc1ccc(-c2[nH]c3cc(F)cc4c3c2CCNC4=O)cc1 [rucaparib]
In short: as §1

[2] = compound: CNc1nc(-c2ccc3c(N)n[nH]c3c2)cc(N2C[C@@H](C(=O)NC3CCCCC3)CC[C@H]2C)n1
In short: as §1

encorafenib = compound: COC(=O)N[C@@H](C)CNc1nccc(-c2cn(C(C)C)nc2-c2cc(Cl)cc(NS(C)(=O)=O)c2F)n1 [encorafenib]
In short: as §1

[3] = compound: COC(=O)[C@H](CCSC)NC(=O)C1=C(C=C(C=C1)NC[C@H](CS)N)C2=CC=CC=C2
In short: as §1

[4] = compound: COC1=CC=C(C=C1)CN2C=CC3=C2C=C(C=C3)C(=O)NO
In short: as §1

filanesib = compound: CON(C)C(=O)N1N=C(c2cc(F)ccc2F)S[C@@]1(CCCN)c1ccccc1 [filanesib]
In short: as §1

zotarolimus = compound: CO[C@H]1C[C@@H]2CC[C@@H](C)[C@@](O)(O2)C(=O)C(=O)N2CCCC[C@H]2C(=O)O[C@H]([C@H](C)C[C@@H]2CC[C@H](n3cnnn3)[C@H](OC)C2)CC(=O)[C@H](C)/C=C(\C)[C@@H](O)[C@@H](OC)C(=O)[C@H](C)C[C@H](C)/C=C/C=C/C=C/1C [zotarolimus]
In short: as §1

idasanutlin = compound: COc1cc(C(=O)O)ccc1NC(=O)[C@@H]1N[C@@H](CC(C)(C)C)[C@](C#N)(c2ccc(Cl)cc2F)[C@H]1c1cccc(Cl)c1F [idasanutlin]
In short: as §1

alisertib = compound: COc1cc(Nc2ncc3c(n2)-c2ccc(Cl)cc2C(c2c(F)cccc2OC)=NC3)ccc1C(=O)O [alisertib]
In short: as §1

[5] = compound: COc1cc2nc(-c3cc(F)ccc3O)nc(N[C@@H]3CNC[C@H]3C(C)(C)O)c2cc1OC
In short: as §1

gefitinib = compound: COc1cc2ncnc(Nc3ccc(F)c(Cl)c3)c2cc1OCCCN1CCOCC1 [gefitinib]
In short: as §1

[6] = compound: COc1cccc2cc(-c3nc([C@H]4CC[C@H](C(=O)O)CC4)n4ncnc(N)c34)[nH]c12
In short: as §1

lapatinib = compound: CS(=O)(=O)CCNCc1ccc(-c2ccc3ncnc(Nc4ccc(OCc5cccc(F)c5)c(Cl)c4)c3c2)o1 [lapatinib]
In short: as §1

pictilisib = compound: CS(=O)(=O)N1CCN(Cc2cc3nc(-c4cccc5[nH]ncc45)nc(N4CCOCC4)c3s2)CC1 [pictilisib]
In short: as §1

Measured: log2 fold change

SPA17 (UniProt Q15506)
inactive: saracatinib 0.03 | sotrastaurin -0.057 | alvocidib 0.017 | Tubastatin A 0.072 | [1] -0.02 | defactinib -0.046 | rucaparib -0.043 | [2] -0.128 | encorafenib -0.03 | [3] 0.098 | [4] 0.038 | filanesib 0.018 | zotarolimus -0.053 | idasanutlin 0.067 | alisertib -0.293 | [5] -0.013 | gefitinib -0.058 | [6] 0.076 | lapatinib -0.036 | pictilisib 0.131

SOD2 (UniProt P04179)
inactive: saracatinib 0.027 | sotrastaurin 0.056 | alvocidib 0.05 | Tubastatin A -0.022 | [1] -0.001 | defactinib 0.024 | rucaparib -0.037 | [2] -0.079 | encorafenib 0.02 | [3] 0.035 | [4] 0.041 | filanesib -0.023 | zotarolimus -0.019 | idasanutlin 0.017 | alisertib 0.022 | [5] -0.003 | gefitinib 0 | [6] -0.007 | lapatinib -0.024 | pictilisib -0.059

SNRPD2 (UniProt P62316)
inactive: saracatinib 0.1 | sotrastaurin 0.031 | alvocidib 0.134 | Tubastatin A -0.023 | [1] 0.074 | defactinib 0.107 | rucaparib 0.046 | [2] -0.069 | encorafenib -0.019 | [3] 0.043 | [4] 0.004 | filanesib 0.06 | zotarolimus -0.041 | idasanutlin 0.073 | alisertib -0.096 | [5] 0.037 | gefitinib -0.006 | [6] -0.031 | lapatinib 0 | pictilisib -0.004

SMC4 (UniProt Q9NTJ3)
inactive: saracatinib -0.017 | sotrastaurin -0.05 | alvocidib -0.015 | Tubastatin A 0.03 | [1] 0.067 | defactinib -0.038 | rucaparib 0.078 | [2] 0.042 | encorafenib 0.069 | [3] -0.047 | [4] 0 | filanesib 0.028 | zotarolimus 0.05 | idasanutlin -0.034 | alisertib -0.01 | [5] 0.101 | gefitinib -0.015 | [6] -0.067 | lapatinib 0 | pictilisib 0.015

SND1 (UniProt Q7KZF4)
inactive: saracatinib -0.244 | sotrastaurin -0.067 | alvocidib 0.409 | Tubastatin A 0.044 | [1] 0.042 | defactinib 0.43 | rucaparib 0.8 | [2] 0.195 | encorafenib 0.288 | [3] -0.073 | [4] -0.102 | filanesib 0.723 | zotarolimus 0.119 | idasanutlin 0.4 | alisertib -0.116 | [5] -0.012 | gefitinib -0.012 | [6] -0.519 | lapatinib 0.163 | pictilisib -0.195

SNRPA1 (UniProt P09661)
inactive: saracatinib 0.061 | sotrastaurin 0 | alvocidib 0.085 | Tubastatin A -0.07 | [1] 0.003 | defactinib 0.138 | rucaparib -0.004 | [2] -0.085 | encorafenib -0.008 | [3] 0.024 | [4] -0.006 | filanesib -0.001 | zotarolimus 0 | idasanutlin 0.049 | alisertib -0.149 | [5] 0.029 | gefitinib -0.025 | [6] -0.012 | lapatinib 0.027 | pictilisib 0.074

SNX8 (UniProt Q9Y5X2)
inactive: saracatinib 0.073 | sotrastaurin 0.063 | alvocidib -0.01 | Tubastatin A -0.081 | [1] -0.026 | defactinib -0.046 | rucaparib -0.057 | [2] -0.083 | encorafenib 0.017 | [3] 0.056 | [4] -0.021 | filanesib 0.012 | zotarolimus -0.01 | idasanutlin 0.025 | alisertib -0.054 | [5] -0.002 | gefitinib 0 | [6] 0.093 | lapatinib 0.034 | pictilisib 0.02

SMARCC2 (UniProt Q8TAQ2)
inactive: saracatinib -0.089 | sotrastaurin -0.074 | alvocidib -0.094 | Tubastatin A 0.155 | [1] -0.033 | defactinib -0.188 | rucaparib 0.09 | [2] 0.054 | encorafenib -0.01 | [3] -0.069 | [4] -0.017 | filanesib -0.118 | zotarolimus 0.06 | idasanutlin 0.123 | alisertib -0.102 | [5] -0.044 | gefitinib -0.043 | [6] -0.263 | lapatinib -0.024 | pictilisib -0.148

SOCS2 (UniProt O14508)
inactive: saracatinib 0.083 | sotrastaurin 0.024 | alvocidib 0.015 | Tubastatin A 0.006 | [1] -0.061 | defactinib -0.047 | rucaparib -0.012 | [2] -0.051 | encorafenib 0 | [3] 0.014 | [4] -0.076 | filanesib 0.031 | zotarolimus -0.008 | idasanutlin -0.064 | alisertib 0.035 | [5] 0.074 | gefitinib -0.01 | [6] 0.044 | lapatinib -0.083 | pictilisib 0.063

SNRPG (UniProt P62308)
inactive: saracatinib 0.123 | sotrastaurin -0.002 | alvocidib 0.011 | Tubastatin A -0.034 | [1] -0.028 | defactinib 0.127 | rucaparib 0.036 | [2] -0.059 | encorafenib -0.057 | [3] -0.001 | [4] -0.033 | filanesib 0.003 | zotarolimus -0.131 | idasanutlin 0.088 | alisertib -0.023 | [5] 0.09 | gefitinib 0.045 | [6] 0.024 | lapatinib -0.014 | pictilisib 0.003

SPAG5 (UniProt Q96R06)
inactive: saracatinib -0.146 | sotrastaurin -0.165 | alvocidib 0.048 | Tubastatin A 0.149 | [1] 0.009 | defactinib 0.054 | rucaparib 0.458 | [2] 0.169 | encorafenib 0.211 | [3] -0.01 | [4] -0.023 | filanesib 0.3 | zotarolimus 0.067 | idasanutlin -0.002 | alisertib -0.156 | [5] -0.146 | gefitinib -0.092 | [6] -0.174 | lapatinib 0.047 | pictilisib -0.086

SMC1A (UniProt Q14683)
inactive: saracatinib -0.015 | sotrastaurin -0.045 | alvocidib -0.064 | Tubastatin A 0.004 | [1] -0.01 | defactinib -0.082 | rucaparib -0.053 | [2] -0.019 | encorafenib 0.037 | [3] 0.004 | [4] 0.072 | filanesib 0.037 | zotarolimus 0.014 | idasanutlin 0.001 | alisertib -0.031 | [5] -0.007 | gefitinib 0.005 | [6] 0.028 | lapatinib -0.006 | pictilisib 0.053

SMC1B isoform 3 (UniProt Q8NDV3)
inactive: saracatinib -0.059 | sotrastaurin -0.014 | alvocidib -0.036 | Tubastatin A 0.036 | [1] -0.039 | defactinib -0.111 | rucaparib 0.062 | [2] -0.036 | encorafenib -0.096 | [3] -0.007 | [4] -0.081 | filanesib 0.009 | zotarolimus 0.027 | idasanutlin 0.076 | alisertib -0.022 | [5] -0.108 | gefitinib -0.035 | [6] 0.101 | lapatinib 0.026 | pictilisib -0.015

SNRPC (UniProt P09234)
inactive: saracatinib 0.064 | sotrastaurin 0.013 | alvocidib 0.124 | Tubastatin A -0.004 | [1] -0.038 | defactinib 0.102 | rucaparib 0.023 | [2] -0.075 | encorafenib -0.093 | [3] 0.004 | [4] 0 | filanesib 0.033 | zotarolimus -0.005 | idasanutlin 0.048 | alisertib -0.082 | [5] -0.13 | gefitinib -0.009 | [6] 0.008 | lapatinib 0.003 | pictilisib -0.033

SNU13, A0A3B3IUA2
inactive: saracatinib -0.075 | sotrastaurin 0.022 | alvocidib 0.087 | Tubastatin A -0.005 | [1] 0.003 | defactinib 0 | rucaparib -0.201 | [2] -0.08 | encorafenib -0.064 | [3] 0.063 | [4] -0.229 | filanesib 0.053 | zotarolimus -0.163 | idasanutlin -0.093 | alisertib -0.331 | [5] 0.121 | gefitinib -0.008 | [6] 0.066 | lapatinib -0.15 | pictilisib 0.166
